These are yes or no findings as the source states them, for the method shown. In cells and extracts the contact can be indirect. Some entries that bind do so weakly or less than the wild type. Sequences can lack the tags named with a protein.
Assays:
[1] = target: T1, Flag-Halo-tagged CTCF WT (dox-inducible rescue) (UniProt Q61164); assay: co-IP; same anti-Flag immunoprecipitation from the chromatin fraction; pooled Flag peptide elution separated by SDS-PAGE, Western blot for CTCF and Rad21
T1 sequence: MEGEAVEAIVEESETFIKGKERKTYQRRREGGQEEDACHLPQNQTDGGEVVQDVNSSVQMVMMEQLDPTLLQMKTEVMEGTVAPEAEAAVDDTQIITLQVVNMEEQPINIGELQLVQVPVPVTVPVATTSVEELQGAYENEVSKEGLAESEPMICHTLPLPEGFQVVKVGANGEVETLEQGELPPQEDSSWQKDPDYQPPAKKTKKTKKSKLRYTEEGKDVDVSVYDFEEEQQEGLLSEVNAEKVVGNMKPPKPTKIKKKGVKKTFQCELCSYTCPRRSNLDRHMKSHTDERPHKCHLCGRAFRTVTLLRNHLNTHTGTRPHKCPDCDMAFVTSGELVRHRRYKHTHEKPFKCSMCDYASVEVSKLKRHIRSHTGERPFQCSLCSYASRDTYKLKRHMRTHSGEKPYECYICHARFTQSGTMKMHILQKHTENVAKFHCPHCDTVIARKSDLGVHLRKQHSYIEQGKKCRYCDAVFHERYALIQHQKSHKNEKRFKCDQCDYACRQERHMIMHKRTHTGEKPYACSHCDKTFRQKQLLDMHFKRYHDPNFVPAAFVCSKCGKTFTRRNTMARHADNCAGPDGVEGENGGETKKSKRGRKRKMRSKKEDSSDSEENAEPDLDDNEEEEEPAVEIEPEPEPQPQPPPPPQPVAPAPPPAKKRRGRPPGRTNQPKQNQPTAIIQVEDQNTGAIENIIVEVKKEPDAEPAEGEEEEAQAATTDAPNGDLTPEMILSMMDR

[2] = target: T2, Flag-Halo-tagged CTCF ΔZF1 (dox-inducible rescue) (UniProt Q61164); assay: as above
T2 sequence: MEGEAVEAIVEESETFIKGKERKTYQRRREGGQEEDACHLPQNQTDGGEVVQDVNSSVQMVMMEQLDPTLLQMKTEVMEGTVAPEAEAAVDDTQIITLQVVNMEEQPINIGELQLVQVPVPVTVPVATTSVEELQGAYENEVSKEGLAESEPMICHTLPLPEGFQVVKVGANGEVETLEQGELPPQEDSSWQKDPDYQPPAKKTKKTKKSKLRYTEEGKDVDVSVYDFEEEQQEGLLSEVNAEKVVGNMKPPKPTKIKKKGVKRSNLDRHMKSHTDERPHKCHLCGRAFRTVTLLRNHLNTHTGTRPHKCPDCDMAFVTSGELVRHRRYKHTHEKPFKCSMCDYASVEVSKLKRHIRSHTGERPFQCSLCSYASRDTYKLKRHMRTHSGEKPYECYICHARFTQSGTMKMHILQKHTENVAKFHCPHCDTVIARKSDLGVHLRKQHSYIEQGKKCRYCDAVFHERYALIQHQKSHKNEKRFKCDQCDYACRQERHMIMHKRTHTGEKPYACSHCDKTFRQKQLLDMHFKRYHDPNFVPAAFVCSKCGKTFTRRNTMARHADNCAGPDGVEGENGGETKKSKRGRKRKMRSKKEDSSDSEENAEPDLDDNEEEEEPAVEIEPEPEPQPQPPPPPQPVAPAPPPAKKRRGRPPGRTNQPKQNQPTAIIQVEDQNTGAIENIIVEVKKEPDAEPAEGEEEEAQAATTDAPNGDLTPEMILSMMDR

B1: Rad21 (protein, UniProt Q61550 1-635)
chain: MFYAHFVLSKRGPLAKIWLAAHWDKKLTKAHVFECNLESSVESIISPKVKMALRTSGHLLLGVVRIYHRKAKYLLADCNEAFIKIKMAFRPGVVDLPEENREAAYNAITLPEEFHDFDQPLPDLDDIDVAQQFSLNQSRVEEITMREEVGNISILQENDFGDFGMDDREIMREGSAFEDDDMLVSTSASNLLLEPEQSTSNLNEKMNHLEYEDQYKDDNFGEGNDGGILDDKLISNNDGGIFDDPPALSEAGVMLPEQPAHDDMDEDDNGSLGGPDSPDSVDPVEPMPTMTDQTTLVPNEEEAFALEPIDITVKETKAKRKRKLIVDSVKELDSKTIRAQLSDYSDIVTTLDLAPPTKKLMMWKETGGVEKLFFLPAQPLWNNRLLKLFTRCLTPLVPEDLRKRRKGGEADNLDEFLKEFENPEVPREEQQPQQQQPQPQRDVIDEPIIEEPSRLQDSVMEASRTTIEESAMPPPPPQGVKRKAGQIDPEPSIPPQQVEQMEIPPVELPPEEPPNICQLIPELELLPEKEKEKEKEKEEEEEEEDEDASGGDQDQEERRWNKRTQQMLHGLQRALAKTGAESISLLELCRNTNRKQAAAKFYSFLVLKKQQAIELTQEEPYSDIIATPGPRFHII
Question: For B1, which binding [1] is on record?
Answer: binds

Question: And the binding [2]?
Answer: binds
